Our source for the binding values is paper PMC11009390.

Chains of the proteins cited; added tags and fusions are not shown. Lines headed by an entry give the natural chain unless they say otherwise; changes in a name come on top.
UniProt P53350: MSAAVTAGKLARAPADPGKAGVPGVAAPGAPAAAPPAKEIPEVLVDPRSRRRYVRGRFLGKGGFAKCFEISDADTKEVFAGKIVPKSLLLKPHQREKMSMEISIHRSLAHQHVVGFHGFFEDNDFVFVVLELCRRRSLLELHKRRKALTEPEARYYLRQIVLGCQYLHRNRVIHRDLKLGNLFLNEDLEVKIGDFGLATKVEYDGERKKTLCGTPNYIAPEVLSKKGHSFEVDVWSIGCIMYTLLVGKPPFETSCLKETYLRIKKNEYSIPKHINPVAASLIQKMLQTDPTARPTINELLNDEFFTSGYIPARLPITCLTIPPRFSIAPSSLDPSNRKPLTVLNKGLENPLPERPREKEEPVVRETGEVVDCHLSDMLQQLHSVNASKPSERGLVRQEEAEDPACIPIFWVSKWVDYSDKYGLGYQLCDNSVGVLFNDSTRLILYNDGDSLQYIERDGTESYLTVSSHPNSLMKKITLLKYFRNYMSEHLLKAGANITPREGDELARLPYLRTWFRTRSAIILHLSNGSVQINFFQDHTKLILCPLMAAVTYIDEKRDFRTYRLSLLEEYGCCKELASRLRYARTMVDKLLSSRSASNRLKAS
UniProt Q9H4B4: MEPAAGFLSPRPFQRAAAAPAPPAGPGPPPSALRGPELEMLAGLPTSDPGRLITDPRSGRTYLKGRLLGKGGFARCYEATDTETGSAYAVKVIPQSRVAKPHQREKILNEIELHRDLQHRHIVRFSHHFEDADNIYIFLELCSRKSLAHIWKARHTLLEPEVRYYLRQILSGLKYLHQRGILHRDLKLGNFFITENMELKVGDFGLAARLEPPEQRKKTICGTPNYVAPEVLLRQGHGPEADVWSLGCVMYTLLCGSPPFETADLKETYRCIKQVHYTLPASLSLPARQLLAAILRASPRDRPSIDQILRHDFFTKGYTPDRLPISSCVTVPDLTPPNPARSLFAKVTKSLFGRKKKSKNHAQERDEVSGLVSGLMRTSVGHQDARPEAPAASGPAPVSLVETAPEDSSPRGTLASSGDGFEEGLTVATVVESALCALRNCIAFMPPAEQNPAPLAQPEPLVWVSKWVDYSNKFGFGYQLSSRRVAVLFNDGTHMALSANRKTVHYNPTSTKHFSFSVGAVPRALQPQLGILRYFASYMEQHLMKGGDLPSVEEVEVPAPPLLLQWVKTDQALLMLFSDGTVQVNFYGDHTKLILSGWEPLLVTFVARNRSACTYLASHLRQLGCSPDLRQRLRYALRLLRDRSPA
UniProt O43847: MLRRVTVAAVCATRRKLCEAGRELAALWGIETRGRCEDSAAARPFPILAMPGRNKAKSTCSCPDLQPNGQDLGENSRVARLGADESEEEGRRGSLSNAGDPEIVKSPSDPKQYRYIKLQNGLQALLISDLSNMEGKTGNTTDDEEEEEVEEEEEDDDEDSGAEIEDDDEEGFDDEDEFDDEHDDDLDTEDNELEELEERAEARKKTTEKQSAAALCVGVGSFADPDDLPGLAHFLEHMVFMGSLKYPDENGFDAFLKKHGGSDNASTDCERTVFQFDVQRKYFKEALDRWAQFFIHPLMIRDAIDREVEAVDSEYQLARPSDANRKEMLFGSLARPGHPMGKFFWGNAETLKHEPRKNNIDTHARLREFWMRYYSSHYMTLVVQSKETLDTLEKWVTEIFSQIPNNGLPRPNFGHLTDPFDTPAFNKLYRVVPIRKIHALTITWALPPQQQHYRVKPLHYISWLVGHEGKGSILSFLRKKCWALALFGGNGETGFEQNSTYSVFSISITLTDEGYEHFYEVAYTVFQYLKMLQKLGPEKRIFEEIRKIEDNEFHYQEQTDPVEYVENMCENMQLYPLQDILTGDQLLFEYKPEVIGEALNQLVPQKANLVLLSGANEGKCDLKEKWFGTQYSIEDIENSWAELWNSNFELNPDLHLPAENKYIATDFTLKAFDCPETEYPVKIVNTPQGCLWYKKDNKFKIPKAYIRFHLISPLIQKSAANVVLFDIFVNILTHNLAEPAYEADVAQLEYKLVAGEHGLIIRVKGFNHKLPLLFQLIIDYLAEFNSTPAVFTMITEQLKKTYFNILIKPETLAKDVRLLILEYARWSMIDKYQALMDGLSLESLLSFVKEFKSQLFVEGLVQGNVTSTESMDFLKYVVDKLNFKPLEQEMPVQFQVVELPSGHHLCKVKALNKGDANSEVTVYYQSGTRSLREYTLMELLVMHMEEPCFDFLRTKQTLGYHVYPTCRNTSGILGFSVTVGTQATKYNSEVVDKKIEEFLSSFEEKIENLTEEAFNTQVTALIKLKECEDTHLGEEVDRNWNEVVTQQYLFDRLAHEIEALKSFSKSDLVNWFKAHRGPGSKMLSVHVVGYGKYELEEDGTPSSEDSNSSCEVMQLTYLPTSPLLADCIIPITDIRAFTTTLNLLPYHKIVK

No constants are given. Whether binding was seen depends on the method and setting. In cells and extracts the contact can be indirect. Binding can be weak; no strength is given.

One experiment addresses Plk1 (p68Plk1) (UniProt P53350). Kind of experiment: co-IP; IP and IB of Plk1-NRDC in PANC-1 cells; which partner was precipitated is not told.
Experiment [1] has as its target Flag-p72Plk3 (full-length human Polo-like kinase 3, 1-646 aa) (human) (UniProt Q9H4B4). Description: co-IP; 1 mg protein extract of cells (PANC-1) transfected with the Flag-tagged Plk3 construct, anti-Flag (M2) magnetic beads, 4 °C overnight; partner detected by Western blot.
In experiment [2] the target is nardilysin (NRDC) (human (endogenous in PANC-1)) (UniProt O43847). Kind of experiment: co-IP; co-IP of NRDC from PANC-1 cells transfected with Flag-p72Plk3, treated with or without LY294002 (32 μM); immunoblot.

With “nardilysin (NRDC) (from UniProt O43847) (enzyme)”, the binding entry (with Plk1 (p68Plk1); in experiment [1]) was “binds” in each case.
Turning to “Flag-p72Plk3 (full-length human Polo-like kinase 3, 1-646 aa) (from UniProt Q9H4B4 1-646) (enzyme)”, the binding entry in experiment [2] is given as “binds”.

B1: centaurin-α1 (protein, UniProt O75689 1-374)
chain: MAKERRRAVLELLQRPGNARCADCGAPDPDWASYTLGVFICLSCSGIHRNIPQVSKVKSVRLDAWEEAQVEFMASHGNDAARARFESKVPSFYYRPTPSDCQLLREQWIRAKYERQEFIYPEKQEPYSAGYREGFLWKRGRDNGQFLSRKFVLTEREGALKYFNRNDAKEPKAVMKIEHLNATFQPAKIGHPHGLQVTYLKDNSTRNIFIYHEDGKEIVDWFNALRAARFHYLQVAFPGAGDADLVPKLSRNYLKEGYMEKTGPKQTEGFRKRWFTMDDRRLMYFKDPLDAFARGEVFIGSKESGYTVLHGFPPSTQGHHWPHGITIVTPDRKFLFACETESDQREWVAAFQKAVDRPMLPQEYAVEAHFKHKP
B1: the binding entry in experiment [2] is on record as “binds”.
